PubChem BioAssay AID1259254, NCATS | 2017

Assay: 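Genome-wide screen for genes that prevent DNA re-replication in cancer cells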 (primary screen)
Cells: human HCT116 colorectal cancer cells
Knock-down reagent: single siRNA against human genes
Time to read-out: 3 days
Measurement: 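Nuclei stained with Hoechst and imaged; cell-cycle phase assigned by DNA content; G2 share scaled per plate, non-targeting siRNA 0%, GMNN siRNA 100%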
Scale: G2 robust z-score and G2 cells, % of GMNN control: higher = more G2 cells, more excess DNA replication
Rule for the call: 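Active siRNAs have a G2 robust z of 5 or more median absolute deviations over the median, which in these data means about 38% or higher of GMNN control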
Here is an unselected part of about 59,000 reagents. Over the whole deposit, about 1,550 (2.6%) got an active call. 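G2 share is only a proxy for re-replication; each gene was hit by three separate siRNAs, and active genes were retested.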 A number with no mark means an inactive call. Reagents against one gene are numbered here. Not all columns of the deposit are shown. Not given: the amount of reagent.

Gene	siRNA no.	G2 robust z-score	G2 cells, % of GMNN control
WFDC21P (GeneID 645638)	1	4.71	36.1
WFDC21P (GeneID 645638)	2	0.463	6.22
WFDC21P (GeneID 645638)	3	-0.319	0.724
KLK15 (GeneID 55554)	1	0.635	7.43
KLK15 (GeneID 55554)	2	0.2	4.37
KLK15 (GeneID 55554)	3	-0.618	-1.38
OR4C6 (GeneID 219432)	1	-0.0324	2.74
OR4C6 (GeneID 219432)	2	0.663	7.63
OR4C6 (GeneID 219432)	3	1.58	14.1
SLAMF6 (GeneID 114836)	1	3.32	26.3
SLAMF6 (GeneID 114836)	2	0.933	9.54
SLAMF6 (GeneID 114836)	3	-0.897	-3.34
MUTYH (GeneID 4595)	1	0.566	6.95
MUTYH (GeneID 4595)	2	-0.628	-1.45
MUTYH (GeneID 4595)	3	-1.02	-4.21
DIPK1C (GeneID 125704)	1	0.151	4.03
DIPK1C (GeneID 125704)	2	0.892	9.24
DIPK1C (GeneID 125704)	3	-0.206	1.52
NEUROD2 (GeneID 4761)	1	-0.528	-0.747
NEUROD2 (GeneID 4761)	2	6.8 (active)	50.8
NEUROD2 (GeneID 4761)	3	-0.591	-1.19
CAP1 (GeneID 10487)	1	0.0511	3.33
CAP1 (GeneID 10487)	2	1.07	10.5
CAP1 (GeneID 10487)	3	2.17	18.2
ALKAL1 (GeneID 389658)	1	0.828	8.79
ALKAL1 (GeneID 389658)	2	0.76	8.31
ALKAL1 (GeneID 389658)	3	-0.00856	2.91
BICDL2 (GeneID 146439)	1	-0.615	-1.36
BICDL2 (GeneID 146439)	2	0.0839	3.56
BICDL2 (GeneID 146439)	3	0.443	6.08
TRIM55 (GeneID 84675)	1	1.56	13.9
TRIM55 (GeneID 84675)	2	-1.29	-6.14
TRIM55 (GeneID 84675)	3	2.13	17.9
TBCA (GeneID 6902)	1	-0.295	0.892
TBCA (GeneID 6902)	2	-0.712	-2.04
TBCA (GeneID 6902)	3	0.376	5.62
FGD1 (GeneID 2245)	1	-0.926	-3.55
FGD1 (GeneID 2245)	2	-0.0913	2.33
FGD1 (GeneID 2245)	3	6.62 (active)	49.5
C2orf66 (GeneID 401027)	1	-1.03	-4.31
C2orf66 (GeneID 401027)	2	4.28	33.1
C2orf66 (GeneID 401027)	3	-1.31	-6.22
OR2Y1 (GeneID 134083)	1	-0.49	-0.481
OR2Y1 (GeneID 134083)	2	1.11	10.7
OR2Y1 (GeneID 134083)	3	-0.124	2.09
KRT39 (GeneID 390792)	1	-0.0128	2.88
KRT39 (GeneID 390792)	2	0.0507	3.32
KRT39 (GeneID 390792)	3	0.163	4.11
SIAE (GeneID 54414)	1	0.218	4.5
SIAE (GeneID 54414)	2	1.33	12.4
SIAE (GeneID 54414)	3	-0.618	-1.38
CRISP2 (GeneID 7180)	1	-0.618	-1.38
CRISP2 (GeneID 7180)	2	1.47	13.3
CRISP2 (GeneID 7180)	3	4.37	33.7
NHLRC4 (GeneID 283948)	1	-0.585	-1.15
NHLRC4 (GeneID 283948)	2	2.85	23
NHLRC4 (GeneID 283948)	3	-0.767	-2.43
RPL15P17 (GeneID 728002)	1	6.96 (active)	52
RPL15P17 (GeneID 728002)	2	1.27	11.9
RPL15P17 (GeneID 728002)	3	1.07	10.5
ZSCAN5A (GeneID 79149)	1	7.51 (active)	55.8
ZSCAN5A (GeneID 79149)	2	4.62	35.5
ZSCAN5A (GeneID 79149)	3	0.0428	3.27
DCPS (GeneID 28960)	1	8.34 (active)	61.6
DCPS (GeneID 28960)	2	3.56	28
DCPS (GeneID 28960)	3	-1.55	-7.95
AP4E1 (GeneID 23431)	1	-0.0375	2.7
AP4E1 (GeneID 23431)	2	0.882	9.17
AP4E1 (GeneID 23431)	3	2.66	21.7

Reagents listed above marked active, once more:
Gene	siRNA no.	G2 robust z-score	G2 cells, % of GMNN control
NEUROD2 (GeneID 4761)	2	6.8 (active)	50.8
FGD1 (GeneID 2245)	3	6.62 (active)	49.5
RPL15P17 (GeneID 728002)	1	6.96 (active)	52
ZSCAN5A (GeneID 79149)	1	7.51 (active)	55.8
DCPS (GeneID 28960)	1	8.34 (active)	61.6
